# Results from patent publication US12415868 (MINERVA BIOTECHNOLOGIES, dated 2025).
# These are yes or no findings as the source states them, for the method shown. Some binding calls cover weakened binding; strength is not graded here.
# T1: recombinant human NME7AB (human, UniProt Q9Y5B8 92-376)
# T1 construct: also called NME-AB; NME7 (in several passages)
# T1 sequence: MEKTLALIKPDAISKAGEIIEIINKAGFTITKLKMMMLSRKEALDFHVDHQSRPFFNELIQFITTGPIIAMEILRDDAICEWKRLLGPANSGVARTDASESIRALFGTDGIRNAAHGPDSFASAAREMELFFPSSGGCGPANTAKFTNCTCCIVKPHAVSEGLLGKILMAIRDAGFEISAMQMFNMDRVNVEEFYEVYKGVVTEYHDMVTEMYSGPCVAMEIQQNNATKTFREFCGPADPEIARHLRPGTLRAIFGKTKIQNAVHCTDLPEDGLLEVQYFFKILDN
# Assays:
# recombinant human NME7AB [1] = biological target: T1, recombinant human NME7AB; experiment: ELISA, plate coated with recombinant NME7AB (FIG. 24)
# Method: The surface of the multi-well plate was coated with a recombinant $NME7AB$. Anti-$NME7AB$ antibodies were separately added to wells. Standard washes were performed and visualized by adding an HRP-conjugated secondary antibody. […] 7 of the 10 new anti-NME7 antibodies bound strongly to NME7$AB$. […] The surface of the multi-well plate was coated with a recombinant NME1-S120G dimers, which are also known to bind to the MUC1* extra cellular domain. Anti-NME7$AB$ antibodies were separately added to wells. Standard washes were performed and visualized by adding an HRP-conjugated secondary antibody.
# recombinant human NME7AB [2] = biological target: T1, recombinant human NME7AB; experiment: selection of the monoclonal antibodies; assay not named here
binder,measurement,setting,value
"anti-NME7 monoclonal antibody 5F3A5D4 (antibody, V domains shown) VH: VQLQQSGPDLVKPGTSVKISCKTSGNTFTEYTMHWVKQSHGKSLEWIGGFNPNNGVTNYNQKFKGKATLTVDKSSSTAYMELRSLTSEDSAVYYCARRYYHSTYVFYFDSWGQGTTLTVSS VL: DIQMTQTTSSLSASLGDRVTISCSASQGISNYLNWFQQKPDGTIKLLIYYTSSLHSGVPSRFSGSGSGTDYSLTISNVEPEDIATYYCQQYSKLPYTFGGGTKLEIKR",binding,recombinant human NME7AB [1],binds
same,binding,recombinant human NME7AB [2],binds
